The source of these data is US20250206836A1.

Sequences of proteins named here, by UniProt entry; tags and fusion partners are left off. Residues count along the entry.
UniProt P16671, residues 30-439: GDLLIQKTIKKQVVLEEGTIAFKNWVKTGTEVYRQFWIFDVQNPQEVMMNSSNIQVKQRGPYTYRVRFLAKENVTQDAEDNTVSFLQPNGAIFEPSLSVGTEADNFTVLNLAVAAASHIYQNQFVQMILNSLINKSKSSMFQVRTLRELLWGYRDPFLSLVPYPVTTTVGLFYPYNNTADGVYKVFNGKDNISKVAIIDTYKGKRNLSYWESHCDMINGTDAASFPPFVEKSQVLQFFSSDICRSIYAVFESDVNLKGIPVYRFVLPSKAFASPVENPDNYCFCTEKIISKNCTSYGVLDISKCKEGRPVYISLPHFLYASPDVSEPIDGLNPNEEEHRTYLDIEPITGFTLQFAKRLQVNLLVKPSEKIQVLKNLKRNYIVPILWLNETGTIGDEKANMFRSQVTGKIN
UniProt P07996, residues 19-1170: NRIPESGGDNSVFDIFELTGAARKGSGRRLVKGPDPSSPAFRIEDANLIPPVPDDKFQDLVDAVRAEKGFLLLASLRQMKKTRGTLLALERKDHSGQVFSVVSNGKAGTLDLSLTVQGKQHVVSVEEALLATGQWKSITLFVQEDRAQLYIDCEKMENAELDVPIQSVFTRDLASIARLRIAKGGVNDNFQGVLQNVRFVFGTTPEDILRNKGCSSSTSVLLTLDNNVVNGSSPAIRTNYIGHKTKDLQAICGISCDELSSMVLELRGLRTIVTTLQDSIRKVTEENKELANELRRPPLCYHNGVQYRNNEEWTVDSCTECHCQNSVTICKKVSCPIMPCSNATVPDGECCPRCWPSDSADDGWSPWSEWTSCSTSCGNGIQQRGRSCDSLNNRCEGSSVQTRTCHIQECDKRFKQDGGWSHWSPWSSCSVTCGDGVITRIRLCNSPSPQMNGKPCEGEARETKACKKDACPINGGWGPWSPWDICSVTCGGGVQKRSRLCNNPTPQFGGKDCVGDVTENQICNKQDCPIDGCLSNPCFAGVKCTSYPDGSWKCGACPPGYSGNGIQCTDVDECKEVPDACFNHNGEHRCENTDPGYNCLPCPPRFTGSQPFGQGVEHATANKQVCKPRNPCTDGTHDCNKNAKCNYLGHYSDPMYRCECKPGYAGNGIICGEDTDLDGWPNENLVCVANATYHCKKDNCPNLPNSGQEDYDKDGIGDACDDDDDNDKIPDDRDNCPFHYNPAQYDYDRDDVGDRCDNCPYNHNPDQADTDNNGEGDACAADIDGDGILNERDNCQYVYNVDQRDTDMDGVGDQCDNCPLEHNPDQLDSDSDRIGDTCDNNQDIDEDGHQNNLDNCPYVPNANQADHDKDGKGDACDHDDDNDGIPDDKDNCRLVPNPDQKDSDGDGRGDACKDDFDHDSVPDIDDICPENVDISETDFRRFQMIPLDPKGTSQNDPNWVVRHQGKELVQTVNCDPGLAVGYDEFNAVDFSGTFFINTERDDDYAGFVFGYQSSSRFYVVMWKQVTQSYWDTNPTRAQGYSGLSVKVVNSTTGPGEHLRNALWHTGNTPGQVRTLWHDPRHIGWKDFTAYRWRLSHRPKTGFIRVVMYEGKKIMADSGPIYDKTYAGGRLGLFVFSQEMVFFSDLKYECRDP

Assay [1] concerns the target CD36 immobilized on the SPR surface (UniProt P16671). Description: SPR competition experiment: CD36 immobilized on the surface, 20 nM 1G04 or buffer first, then a short pulse of 200 nM TSP1.
Assay [2] has the same target. Briefly: SPR competition experiment: CD36 immobilized, 20 nM anti-CD36 antibody to saturation, then 200 nM TSP1; change in RU relative to buffer-only injection.

Results are given in words; binding and its absence hold for the method and conditions named. Some binding calls cover weakened binding; strength is not graded here.

“TSP1 (from UniProt P07996 19-1170) (ligand)”: the binding entry in assay [1] and in assay [2] was “binds” each time.
